Measurements from PubChem BioAssay AID540256 (National Center for Advancing Translational Sciences (NCATS), 2011).
Out of some 300,000 compounds screened, about 3,700 (1.2%) were called active. The inconclusive results got no clear call from the source; some entries with a clear call stand among them for comparison. Calls come from the whole dose curve; tested in HEK293 cells. Potencies of inconclusive entries are doubtful fits and often do not repeat. More than one record can exist for a structure, and the calls need not agree.

assay: qHTS for Inhibitors of binding or entry into cells for Lassa Virus; conditions: Lassa virus pseudotype entry inhibition, cell reporter; activity change, negative = inhibition: at 37.9 µM (top of the series) unless noted; note: nearly all actives have a fitted effect of over 50% in size
% is set by controls: 0 for no effect and ±100 for the full control effect; potency is the fitted concentration of half-maximal effect.

| SMILES | activity change, negative = inhibition | Potency |
| --- | --- | --- |
| S=C(Nc1ccccc1Cl)Nc1ccc(Cl)cc1Cl | inactive: 2.84% |  |
| CC1=C(C(=O)OC(C)C)C(c2cccs2)N2C(=O)C(C)SC2=N1 (stereo not given) | inactive: -24.5% |  |
| CN1CCC(=C2c3ccccc3CC(=O)c3sccc32)CC1 |  | inconclusive: 14.6 µM [inhibitor, partial curve, poor fit] |
| Cc1ccc(-c2c3c(=O)n(C)c(=O)n(C)c3cn2Cc2ccccn2)cc1 | inactive: -3.14% |  |
| CN1CCN(C(=S)NC(CC(=O)c2ccccc2)c2ccccc2)CC1 (stereo not given) |  | inconclusive: 3.98 µM [inhibitor, partial curve, poor fit] |
| c1ccc2c(c1)oc1c(N3CCOCC3)ncnc12 | inactive: 2.14% |  |
| CCCCN(CC)C(=O)Cn1cc2c(n1)-c1c(oc(C(=O)N3CCCC3)c1C)CC2 | inactive: -11.7% [at 46.1 µM] |  |
| Cc1ccc(/C=c2\s/c(=C(/C#N)C(=O)N3CCCC3)n(Cc3ccco3)c2=O)s1 |  | inconclusive: 25.9 µM [inhibitor, partial curve, poor fit] |
| Cc1cc(N)cc(C)c1-c1c(Br)cc(N)cc1Br |  | inconclusive: 8.91 µM [inhibitor, single point] |
| CC(=O)C(Sc1nc(-c2ccccc2Cl)nc2c1c(=O)n(C)c(=O)n2C)C(=O)N(C)C (stereo not given) | inactive: -11.9% [at 46.1 µM] |  |
| CN1C(=O)NC(c2ccccc2[N+](=O)[O-])C2=C1CCCC2=O (stereo not given) |  | inconclusive: 0.794 µM [activator, full curve, poor fit] |
| Cc1ccn2c(=O)c(NC(=O)c3cccc([N+](=O)[O-])c3C)c(C)nc2c1 |  | inconclusive: 7.08 µM [inhibitor, partial curve] |
| O=C(CSc1nc2ccccc2c(=O)n1-c1ccc(F)cc1F)c1c[nH]c2ccccc12 |  | inconclusive: 15.8 µM [inhibitor, single point] |
| Cc1nn(-c2ccc(N3CCCCC3)nn2)c(C)c1CCC(=O)Nc1cccc(F)c1 |  | inconclusive: 35.5 µM [inhibitor, single point] |
| COCCN(C(=O)COC(=O)/C=C/c1ccc(C(F)(F)F)cc1)c1c(N)n(Cc2ccccc2)c(=O)[nH]c1=O |  | inconclusive: 1.26 µM [activator, single point] |
| CCOC(=O)C1CN(S(=O)(=O)c2ccc(OC)cc2)c2cc(S(=O)(=O)CC)ccc2O1 (stereo not given) |  | inconclusive: 6.51 µM [inhibitor, full curve, poor fit] |
| COc1ccc(N(C(=O)c2ccco2)C(C(=O)NC2CCCCC2)c2ccccc2)cc1 (stereo not given) |  | inconclusive: 5.62 µM [inhibitor, partial curve, poor fit] |
| Cc1ccc(CN2CC(C(=O)NCCCSc3ccccc3)CC2=O)cc1 (stereo not given) |  | inconclusive: 22.4 µM [inhibitor, single point] |
| CC(C)Oc1cccc(C(=O)C2CCCN(Cc3cnc(N4CCCC4)s3)C2)c1 (stereo not given) |  | inconclusive: 29.1 µM [inhibitor, single point] |
| Cc1noc(C)c1C(c1ccccc1)S(=O)(=O)c1ccccc1 (stereo not given) |  | inconclusive: 14.1 µM [activator, partial curve, poor fit] |
| COc1cc(NS(=O)(=O)c2ccc(Nc3nc(-c4ccccc4)cs3)cc2)nc(OC)n1 |  | inconclusive: 1 µM [activator, single point] |
| CCOc1ccc(C2c3[nH]c4ccccc4c3CCN2C(=O)CCC2CCCC2)cc1 (stereo not given) |  | inconclusive: 1 µM [inhibitor, full curve, poor fit] |
| COc1ccc(N2CCN(c3nc(NCCO)nc(N4CCOCC4)n3)CC2)cc1 |  | inconclusive: 9.2 µM [inhibitor, partial curve] |
| CS(=O)(=O)c1cccc(-c2nnc(NC(=O)c3ccc4ncsc4c3)o2)c1 | inactive: 2.29% |  |

| SMILES | activity change, negative = inhibition | Potency |
| --- | --- | --- |
| Cc1cc2occ(CC(=O)NNC(=O)c3ccccc3F)c2cc1C | inactive: 24% [at 46.1 µM] |  |
| CCCCC(=O)Nc1nnc(-c2ccc(OC)cc2)s1 | inactive: 2.02% |  |
| CC(C)COc1ccc(-c2nnn(CC(=O)N3CCCC3)n2)cc1 | inactive: -6.43% |  |
| Cc1ccccc1CN1C(=O)c2ccccc2Sc2ccc(C(=O)NCCCN3CCOCC3)cc21 |  | inconclusive: 35.5 µM [inhibitor, single point] |
| Cc1scc(C(=O)N/N=C/c2ccc(OC(C)C)cc2)c1C |  | inconclusive: 35.5 µM [inhibitor, single point] |
| COc1ccc(-n2c(-c3ccc(Br)cc3)c[n+]3c2CCCCC3)cc1 |  | inconclusive: 35.5 µM [inhibitor, single point] |
| COC(=O)CSc1nc2cc(C)cc(C)c2cc1C#N |  | inconclusive: 3.16 µM [activator, single point] |
| COc1ccccc1N1CCN(CC(O)COc2cccc3ccccc23)CC1 (stereo not given) |  | active: 20.6 µM |
| Brc1ccc(C2=CC(c3ccco3)n3nnnc3N2)cc1 (stereo not given) | inactive: 7.14% |  |
| CCCOc1ccc(Cn2ccnc2)cc1[N+](=O)[O-] |  | inconclusive: 1.84 µM [inhibitor, partial curve, poor fit] |
| CSc1nc(NCc2ccco2)c2ccccc2n1 | inactive: 2.33% |  |
| COc1ccc(S(=O)(=O)N2CCOC2CNC(=O)C(=O)NCCc2ccc(OC)c(OC)c2)cc1 (stereo not given) |  | inconclusive: 0.251 µM [inhibitor, full curve, poor fit] |
| COc1ccccc1C/C(N)=N/OC(=O)c1ccc(C)c([N+](=O)[O-])c1 |  | inconclusive: 29.1 µM [inhibitor, single point] |
| COC(=O)c1[nH]c2cccc(OC)c2c1NC(=O)CN1CCN(c2cccc(OC)c2)C(C)C1 (stereo not given) |  | inconclusive: 35.5 µM [inhibitor, single point] |
| COc1ccccc1CN(C)C(=O)c1cccc(S(=O)(=O)N2CCCc3ccccc32)c1 |  | inconclusive: 14.1 µM [inhibitor, partial curve, poor fit] |
| CCOC(=O)c1cccc(NC(=O)NC2COc3ccccc3C2)c1 (stereo not given) | inactive: -11.9% [at 46.1 µM] |  |
| COc1cc(CC(=O)Nc2nc(-c3ccccc3)c(C(C)=O)s2)cc(OC)c1OC |  | inconclusive: 11.2 µM [inhibitor, single point] |
| COc1cc(NC(=O)C2CCN(S(=O)(=O)c3c(C)noc3/C=C/c3c(C)cc(C)cc3C)CC2)cc(OC)c1 |  | inconclusive: 35.5 µM [activator, single point] |
| Cc1cccc(C)c1NC(=O)c1cc2sccc2n1Cc1ccc(F)cc1 |  | inconclusive: 3.55 µM [inhibitor, full curve, poor fit] |
| Cc1ccc(C(=O)N/C(=C\c2ccco2)C(=O)NCCc2c[nH]c3ccccc23)cc1 |  | inconclusive: 0.82 µM [inhibitor, full curve, poor fit] |
| Cc1ccc(S(=O)(=O)N(C)c2ccccc2)cc1 | inactive: 4.43% |  |
| CC(C)(C)c1ccc(C(=O)Nc2ccc(Cl)cc2C(=O)c2ccccc2)cc1 | inactive: -20.7% [at 46.1 µM] |  |
| Cc1ccc(NC(=O)NCc2c(-n3cccc3)sc3c2CCCC3)c(Cl)c1 | inactive: -7.1% [at 46.1 µM] |  |
| COC(=O)c1cn(C(=O)c2ccc(OC)cc2)c2ccccc12 | inactive: -19.5% [at 46.1 µM] |  |

Structures above that have an aryl thioether with sulfur outside any ring:

| SMILES | activity change, negative = inhibition | Potency |
| --- | --- | --- |
| CC(=O)C(Sc1nc(-c2ccccc2Cl)nc2c1c(=O)n(C)c(=O)n2C)C(=O)N(C)C (stereo not given) | inactive: -11.9% [at 46.1 µM] |  |
| O=C(CSc1nc2ccccc2c(=O)n1-c1ccc(F)cc1F)c1c[nH]c2ccccc12 |  | inconclusive: 15.8 µM [inhibitor, single point] |
| Cc1ccc(CN2CC(C(=O)NCCCSc3ccccc3)CC2=O)cc1 (stereo not given) |  | inconclusive: 22.4 µM [inhibitor, single point] |
| COC(=O)CSc1nc2cc(C)cc(C)c2cc1C#N |  | inconclusive: 3.16 µM [activator, single point] |
| CSc1nc(NCc2ccco2)c2ccccc2n1 | inactive: 2.33% |  |

(listing goes on)

| SMILES | activity change, negative = inhibition | Potency |
| --- | --- | --- |
| O=C(CN1CCN(S(=O)(=O)c2ccc(F)cc2)CC1)Nc1ccc(Cl)c(C(F)(F)F)c1 |  | active: 11.2 µM |
| CSCc1ccc(C(=O)Nc2ccc(C(N)=O)cc2)cc1 | inactive: 2.84% |  |
| Cc1ccc(-n2ncc3c(=O)n(Cc4ccccc4C)cnc32)cc1C |  | inconclusive: 1 µM [inhibitor, full curve, poor fit] |
| Cc1cc(C)c(CN2C(=O)c3ccccc3S(=O)(=O)c3ccc(C(=O)OCC4CCCO4)cc32)c(C)c1 (stereo not given) |  | inconclusive: 10 µM [inhibitor, partial curve, poor fit] |
| CCS(=O)(=O)c1ncc(Cl)c(C(=O)N(Cc2ccccc2)c2ccc(OC)cc2)n1 |  | inconclusive: 6.31 µM [inhibitor, full curve] |
| CCOc1ccccc1NC(=O)CN1C(=O)C2(SCC(=O)N2c2ccc(C)cc2)c2ccccc21 (stereo not given) | inactive: -17.6% [at 46.1 µM] |  |
| Cc1ccc2c(C)c3ccc4ccccc4c3c[n+]2c1 | inactive: -27.2% |  |
| CNc1nnc(SCC(=O)c2c(N)n(C3CC3)c(=O)[nH]c2=O)s1 | inactive: 9.89% |  |
| Cn1c(NC(=O)/C=C/c2ccco2)cc(=O)n(C)c1=O |  | inconclusive: 29.1 µM [activator, single point] |
| CCOC(=O)/C(C#N)=C1\C(=O)N(Cc2ccccc2)c2ccccc21 |  | inconclusive: 12.6 µM [inhibitor, partial curve, poor fit] |
| CN(C)CCC(=O)C(Cc1ccccc1)c1ccccc1 (stereo not given) |  | inconclusive: 35.5 µM [inhibitor, single point] |
| Cn1c(=O)c2sccc2n2c(CCCC(=O)NCCc3ccc(S(N)(=O)=O)cc3)nnc12 |  | inconclusive: 1.58 µM [inhibitor, partial curve, poor fit] |
| CCC1CN(C(=O)N2CCC(C(=O)NCc3ccco3)CC2)c2ccccc2O1 (stereo not given) | inactive: 14.2% [at 46.1 µM] |  |
| Cc1ccc(-n2c(SCC(=O)Nc3c(C)cccc3C)nc(O)c(C)c2=O)cc1 |  | inconclusive: 11.2 µM [activator, partial curve, poor fit] |
| Cc1[nH]c(=O)c(C#N)cc1-c1ccccc1 | inactive: 23.7% |  |
| Cn1cnnc1SCC(=O)Nc1ccccc1Sc1ccccc1 | inactive: -9.13% |  |
| CCSc1nnc(NC(=O)Cc2cccc(OC)c2)s1 |  | inconclusive: 6.31 µM [inhibitor, partial curve, poor fit] |
| Cc1ccc(/C=N/N2CCOCC2)s1 | inactive: -23.6% [at 46.1 µM] |  |
| CS(=O)Cc1cc(Sc2ccccc2)nc(-c2cccnc2)n1 (stereo not given) | inactive: -9.7% |  |
| CC(C)N(C(=O)CSc1nc(COc2ccccc2)nc2ccccc12)C(C)C |  | inconclusive: 10 µM [inhibitor, partial curve, poor fit] |
| NS(=O)(=O)c1ccc(NC(=S)N2CCN(c3ccccc3)CC2)cc1 | inactive: -5.81% |  |
| O=C(c1cccc(S(=O)(=O)N2CCOCC2)c1)N1CCN(C/C=C/c2ccccc2)CC1 | inactive: 6.06% |  |
